According to PMC4992025, “A Colorimetric Microplate Assay for DNA-Binding Activity of His-Tagged MutS Protein” (Molecular Biotechnology, 2016):
For at least one entry, the source does not settle the construct or the ends of the probe. The comparison behind a weaker result is the experiment's own reference, which may not be listed here. At least one verdict was read from the data and is not stated in words by the source. For some assays here: Where a protein sequence is shown, tags need not be part of it.

By UniProt entry, the sequences of proteins in these tests, tags left out. Where a name states a change or a piece, a line headed by the entry shows the natural chain unless it says otherwise.
UniProt P23909: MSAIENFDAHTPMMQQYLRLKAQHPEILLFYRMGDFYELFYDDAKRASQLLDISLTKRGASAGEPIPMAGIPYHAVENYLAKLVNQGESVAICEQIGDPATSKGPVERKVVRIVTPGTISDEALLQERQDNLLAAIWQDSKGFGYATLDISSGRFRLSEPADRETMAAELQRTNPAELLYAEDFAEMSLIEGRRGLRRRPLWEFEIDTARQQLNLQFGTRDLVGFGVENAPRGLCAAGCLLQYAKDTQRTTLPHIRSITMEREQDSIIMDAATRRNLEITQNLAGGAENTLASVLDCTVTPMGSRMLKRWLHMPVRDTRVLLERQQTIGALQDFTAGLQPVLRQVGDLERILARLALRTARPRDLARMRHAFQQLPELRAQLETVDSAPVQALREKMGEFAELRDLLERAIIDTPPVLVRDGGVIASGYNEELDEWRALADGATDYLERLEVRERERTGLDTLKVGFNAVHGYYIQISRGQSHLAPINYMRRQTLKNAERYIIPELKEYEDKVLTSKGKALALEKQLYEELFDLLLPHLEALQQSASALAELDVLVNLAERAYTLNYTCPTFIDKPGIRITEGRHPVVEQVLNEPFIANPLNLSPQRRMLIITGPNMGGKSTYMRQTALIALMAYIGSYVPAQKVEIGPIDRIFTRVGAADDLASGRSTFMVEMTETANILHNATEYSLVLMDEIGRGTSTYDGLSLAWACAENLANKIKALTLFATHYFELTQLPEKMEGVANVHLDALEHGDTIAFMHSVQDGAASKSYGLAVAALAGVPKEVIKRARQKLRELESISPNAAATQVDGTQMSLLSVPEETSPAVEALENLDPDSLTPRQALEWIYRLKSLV

Legend:
Assay in all cases: Ni-plate colorimetric binding assay
[1] = target: T1, TthMutS (Thermus thermophilus) (UniProt Q56239); conditions: 5 mM Mg2+, 1x PBS (150 mM salt) or 2x PBS (300 mM salt, with or without 1 mM ADP), 1% Tween-20, 5 mM MgCl2, room temperature, 1 ug His-MutS per well, 10 pmol DNA in 100 ul (0.1 uM), recombinant protein, protein details: N-terminal His tag, label: 5'-biotin on strand 1 (T49)
T1 sequence (looked up, limits assumed): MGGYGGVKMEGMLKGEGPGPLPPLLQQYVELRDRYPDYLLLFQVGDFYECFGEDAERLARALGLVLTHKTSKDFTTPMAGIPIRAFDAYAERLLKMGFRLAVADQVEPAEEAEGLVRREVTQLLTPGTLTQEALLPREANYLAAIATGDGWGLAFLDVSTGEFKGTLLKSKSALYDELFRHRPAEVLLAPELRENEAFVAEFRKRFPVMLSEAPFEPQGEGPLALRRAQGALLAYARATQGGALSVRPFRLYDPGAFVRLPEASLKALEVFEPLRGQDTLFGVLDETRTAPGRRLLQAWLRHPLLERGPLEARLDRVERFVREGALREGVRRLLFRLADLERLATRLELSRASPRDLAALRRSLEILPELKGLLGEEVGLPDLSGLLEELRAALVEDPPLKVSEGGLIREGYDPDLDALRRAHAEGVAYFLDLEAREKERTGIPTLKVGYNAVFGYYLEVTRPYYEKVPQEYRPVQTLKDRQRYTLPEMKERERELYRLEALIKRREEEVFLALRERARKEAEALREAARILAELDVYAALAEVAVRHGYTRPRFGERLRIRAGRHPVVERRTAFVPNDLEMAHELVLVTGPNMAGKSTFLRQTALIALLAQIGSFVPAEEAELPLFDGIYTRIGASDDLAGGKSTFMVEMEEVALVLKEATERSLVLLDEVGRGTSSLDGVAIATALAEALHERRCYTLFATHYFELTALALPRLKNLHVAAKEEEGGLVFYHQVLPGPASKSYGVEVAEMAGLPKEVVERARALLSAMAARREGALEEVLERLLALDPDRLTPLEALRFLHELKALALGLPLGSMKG

[2] = tested on: DrMutS (Deinococcus radiodurans); conditions: 5 mM Mg2+, 1x PBS (150 mM salt) or 2x PBS (300 mM salt, with or without 1 mM ADP), 1% Tween-20, 5 mM MgCl2, room temperature, 1 ug His-MutS per well, 10 pmol DNA in 100 ul (0.1 uM), recombinant protein, protein details: N-terminal His tag, label: 5'-biotin on strand 1 (T49)
[3] = target: EcMutS (Escherichia coli) (UniProt P23909); conditions: 5 mM Mg2+, no ADP, 1x PBS (150 mM salt) or 2x PBS (300 mM salt, with or without 1 mM ADP), 1% Tween-20, 5 mM MgCl2, room temperature, 1 ug His-MutS per well, 10 pmol DNA in 100 ul (0.1 uM), recombinant protein, protein details: N-terminal His tag, label: 5'-biotin on strand 1 (T49)

Row | Sequence | binding result ([1]; 300 mM salt, 1 mM ADP) | binding result ([1]; 300 mM salt, no ADP) | binding result ([2]; 150 mM salt, no ADP) | binding result ([2]; 300 mM salt, 1 mM ADP) | binding result ([2]; 300 mM salt, no ADP) | binding result ([3]; 300 mM salt) | binding result ([1]; 150 mM salt, no ADP) | binding result ([3]; 150 mM salt)
1 | ACAGATCCACTGTGCGACGAGCTGTGCCGCACGGTGATCGCAGCCGCTG (double strand) [TA49 (T49/A49, fully complementary)] | binds more weakly | binds more weakly | binds more weakly | binds more weakly | binds more weakly | binds more weakly |  | 
2 | ACAGATCCACTGTGCGACGAGCTGTGCCGCACGGTGATCGCAGCCGCTG / CAGCGGCTGCGATCACCGTGCGGCGCAGCTCGTCGCACAGTGGATCTGT [TG49 (T49/G49, T:G mismatch)] | binds | binds | binds | binds | binds | binds | binds | binds
